Data on two substances can be found in publication doi:10.1101/326512.

The target of this assay is T1, NRROS^nFlag overexpressed in HEK293T cells (mouse) (UniProt Q8BMT4).
T1 sequence: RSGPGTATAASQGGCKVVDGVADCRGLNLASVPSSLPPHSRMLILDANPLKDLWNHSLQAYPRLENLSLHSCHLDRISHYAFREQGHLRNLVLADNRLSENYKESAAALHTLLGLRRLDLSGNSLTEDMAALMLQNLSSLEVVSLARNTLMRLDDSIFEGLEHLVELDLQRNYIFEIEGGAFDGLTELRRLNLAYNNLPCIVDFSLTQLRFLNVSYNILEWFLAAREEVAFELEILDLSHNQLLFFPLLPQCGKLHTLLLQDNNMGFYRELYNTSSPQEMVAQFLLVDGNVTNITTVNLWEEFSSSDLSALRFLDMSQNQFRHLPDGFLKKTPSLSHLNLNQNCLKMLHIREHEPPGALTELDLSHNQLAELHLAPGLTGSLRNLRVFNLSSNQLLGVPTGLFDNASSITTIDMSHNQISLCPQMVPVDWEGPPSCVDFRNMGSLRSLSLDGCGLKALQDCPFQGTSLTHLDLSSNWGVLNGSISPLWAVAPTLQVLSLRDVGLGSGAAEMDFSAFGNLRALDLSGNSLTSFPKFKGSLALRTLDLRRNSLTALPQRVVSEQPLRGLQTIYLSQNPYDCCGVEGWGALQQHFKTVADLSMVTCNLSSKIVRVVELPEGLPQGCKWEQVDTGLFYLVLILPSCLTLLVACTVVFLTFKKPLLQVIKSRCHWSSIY
As to the kind of experiment: co-IP.

No constants are given. Whether binding was seen depends on the method and setting. Binding seen in cells or lysates may run through a third protein. Where a sequence is shown, tags or fusion partners need not be part of it.

Take “PDI (HEK293T) (human (endogenous in HEK293T))”: the binding result was “no binding”.
For “HSP70 (HEK293T) (human (endogenous in HEK293T))” the value was “no binding”.
